## Screening data, single-dose tests

By UniProt entry, the sequences of proteins in these tests, tags left out. Residues count along the entry.
UniProt A4I591, 1-473: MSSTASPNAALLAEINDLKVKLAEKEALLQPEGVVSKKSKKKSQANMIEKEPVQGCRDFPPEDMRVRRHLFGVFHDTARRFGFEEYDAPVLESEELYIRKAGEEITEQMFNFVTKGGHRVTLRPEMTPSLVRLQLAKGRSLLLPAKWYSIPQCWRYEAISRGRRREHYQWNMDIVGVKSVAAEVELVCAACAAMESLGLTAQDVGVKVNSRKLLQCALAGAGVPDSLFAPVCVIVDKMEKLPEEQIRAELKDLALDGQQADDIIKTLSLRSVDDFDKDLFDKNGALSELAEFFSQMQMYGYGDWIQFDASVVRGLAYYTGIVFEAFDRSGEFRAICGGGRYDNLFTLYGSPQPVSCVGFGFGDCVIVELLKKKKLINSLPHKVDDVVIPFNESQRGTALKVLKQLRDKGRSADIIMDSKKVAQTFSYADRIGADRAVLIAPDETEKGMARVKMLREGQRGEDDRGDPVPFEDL

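Histidine-tRNA ligase, Leishmania infantum (UniProt A4I591). Enzyme assay of histidyl-tRNA synthetase; the read-out is not stated. Tested at 30 µM. Direction is inferred from retests: higher values go with stronger inhibition. The assay is labelled LdHisRS but filed under L. infantum. Size under these conditions: about 69,000 compounds, about 410 of them at 50% or above in at least one test.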

Results are given as percent effect.
The record does not define 0% and 100%; most values in the screen are far below 50% and negative numbers occur (in some assays of this library far below -100).
This is an unselected part of the compounds tested.

| SMILES | Percent Effect |
|---|---|
| `OC1(CNCc2ccc(F)c(C(F)(F)F)c2)CCOC1` (centres undefined) | 23.29% |
| `CCNc1ncc(C(=O)NCC2OCCc3ccccc32)cn1` (centres undefined) | -5.128% |
| `CN(CC1CCCCO1)c1nc(-c2cccnc2)nc2c1CCNC2` (centres undefined) | 9.948% |
| `Cc1nc(C2CCN(Cc3ncc[nH]3)CC2)no1` | 7.368% |
| `O=C(c1ccnnc1)N1CCO[C@H]2[C@@H](OCc3cccnc3)CC[C@@H]21` | 25.71% |
| `CC(Cn1ccnc1)NS(=O)(=O)Cc1ccc(F)cc1` (centres undefined) | 10.99% |
| `Cc1cc(C(=O)N2CCN[C@H](C)C2)c2ccc(F)cc2n1` | 10.2% |
| `COCCS(=O)(=O)Cc1csc(NC(C)=O)n1` | 16.3% |
| `c1ccc(N2CCc3ncnc(C4CC4)c3CC2)nc1` | 17.17% |
| `CC(C)NC(=O)c1nnn(-c2ccc(F)cc2)c1C1CC1` | 13.58% |
| `O=C1CC(NS(=O)(=O)c2ccc3ccccc3c2)CN1` (centres undefined) | 15.73% |
| `O=C(CO)N1CCCn2nnc(Cn3cccn3)c2C1` | 23.68% |
| `CNC(=O)N1CCc2cc(C(=O)N(C)C)c(NCC3CC3)nc2CC1` | 22.64% |
| `CSCCC(C)(O)CNC(=O)Nc1ccccc1C` (centres undefined) | 10.43% |
| `Cc1nn(C)c(N(C)C)c1CNCC(O)COc1ccc(F)cc1` (centres undefined) | 23.08% |
| `Cc1nc(C)c(CC(=O)NCc2cccnc2OC2CCCC2)c(=O)[nH]1` | 13.68% |
| `Cc1noc(Cl)c1CCC(=O)N1CCN(CC(C)(C)O)CC1` | -4.386% |
| `CCc1cc(NCCCNS(C)(=O)=O)nc(-c2ccccn2)n1` | 4.145% |
| `c1cnc(N2CCC3(CN(CC4CCOC4)C3)C2)nc1` (centres undefined) | -7.965% |
| `CC(C)c1nc(CC(=O)N2CCN(C)CC2c2ccccc2)cs1` (centres undefined) | 1.316% |
| `Cc1n[nH]c(C2CN(C(=O)Cn3ccccc3=O)CCO2)n1` (centres undefined) | 8.108% |
| `CN(C)CCN1C(=O)CCC12CCCN(C(=O)CC1CC1)CC2` (centres undefined) | 8.257% |
| `Cc1cc(C(F)(F)F)cc(N2C[C@@H](CN3CCOCC3)[C@@H](CO)C2)n1` | 20.48% |
| `COc1cc(CNC(C)Cn2cccn2)cc2c1OCO2` (centres undefined) | 9.91% |
| `O=C(NCc1nnc2ccccn12)N1CCOC(c2cccs2)C1` (centres undefined) | 8% |
| `Cc1cccc(-c2ncc(CNC(C)Cc3ncccc3C)cn2)c1` (centres undefined) | 15% |
| `CCOc1cccc(C(C)NCc2c(C)nn(C)c2N(C)C)c1` (centres undefined) | 1.923% |
| `COCC1CN(S(=O)(=O)c2ccc(C)cc2)Cc2c1cnn2C` (centres undefined) | 13.79% |
| `CCOC(=O)CN1CCC2(CC1)CC(=O)c1ccc3ccccc3c1O2` | 11.88% |
| `Cn1cc(C2CCCN2C(=O)c2cnc(-c3cccs3)s2)cn1` (centres undefined) | 1.064% |
| `COCCN1CCCC2(CCN(c3ccsc3)C2=O)C1` (centres undefined) | 11% |
| `CCc1ccc(CNC(=O)c2ccc(N3CCOC3=O)cc2)s1` | 12.28% |
| `CC(=O)N1CCC2(CC1)C(=O)N(CC1CCN(C)CC1)c1ccccc12` | 23.08% |
| `Nc1nc2c(c(N3CCCC(CN4CCCC4=O)C3)n1)CCNCC2` (centres undefined) | -2.857% |
| `c1cnc(-c2noc(C3CN(Cc4ccc5c(c4)CCO5)C3)n2)nc1` | 13.91% |
| `CC1CCCN(Cc2ccc(C(N)=O)cc2)C1` (centres undefined) | -10.59% |
| `COc1ccc(OC)c2c(C)cc(N(C)CCO)nc12` | 22.86% |
| `O=C1CCC2(CCOC2)CN1Cc1nc2ccc(Cl)cc2[nH]1` (centres undefined) | 18.67% |
| `CCOc1cccc(CN2CCCC(Nc3ccc(F)cc3)C2)c1O` (centres undefined) | 11.48% |
| `O=C(NC1CC1)N1CC[C@H]2[C@H]1CCN2c1nncs1` | 34.48% |
| `CCN(Cc1ccoc1)C(=O)NC1CCN(C(=O)OC(C)(C)C)C1` (centres undefined) | 0% |
| `c1cnc2[nH]c(C3CCCC3)c(CN3CCOCC3)c2c1` | 8.247% |
| `CCS(=O)(=O)N1CCOC2(COCCN(c3nccs3)C2)C1` (centres undefined) | 15.79% |
| `Cc1ccsc1C(=O)N1CCC(Nc2cccnc2)CC1` | 37.23% |
| `COc1ccc(Br)cc1CCC(=O)N1CCC(O)CC1` | 15.49% |
| `CC(CNC(=O)c1ccc(F)cc1Cl)N1CCCC1` (centres undefined) | 16.35% |
| `CNc1nc(C2CCN(C(=O)CC3CCCC3)C2)nc2c1CN(C)CC2` (centres undefined) | 13.1% |

Some entries from above, unchanged:

CN(CC1CCCCO1)c1nc(-c2cccnc2)nc2c1CCNC2 (centres undefined) gave 9.948%.
COc1ccc(OC)c2c(C)cc(N(C)CCO)nc12 gave 22.86%.
c1cnc2[nH]c(C3CCCC3)c(CN3CCOCC3)c2c1 gave 8.247%.
COc1ccc(Br)cc1CCC(=O)N1CCC(O)CC1 gave 15.49%.

Data taken from ChEMBL document CHEMBL3988442, “University of Dundee, Small-Polar-MMV Screening Library” (2021).